Assay results reported in PMC2852906.
These are yes or no findings as the source states them, for the method shown. Binding seen in cells or lysates may run through a third protein.

The chains behind the UniProt entries cited, without tags or fusion partners.
UniProt Q7KU24: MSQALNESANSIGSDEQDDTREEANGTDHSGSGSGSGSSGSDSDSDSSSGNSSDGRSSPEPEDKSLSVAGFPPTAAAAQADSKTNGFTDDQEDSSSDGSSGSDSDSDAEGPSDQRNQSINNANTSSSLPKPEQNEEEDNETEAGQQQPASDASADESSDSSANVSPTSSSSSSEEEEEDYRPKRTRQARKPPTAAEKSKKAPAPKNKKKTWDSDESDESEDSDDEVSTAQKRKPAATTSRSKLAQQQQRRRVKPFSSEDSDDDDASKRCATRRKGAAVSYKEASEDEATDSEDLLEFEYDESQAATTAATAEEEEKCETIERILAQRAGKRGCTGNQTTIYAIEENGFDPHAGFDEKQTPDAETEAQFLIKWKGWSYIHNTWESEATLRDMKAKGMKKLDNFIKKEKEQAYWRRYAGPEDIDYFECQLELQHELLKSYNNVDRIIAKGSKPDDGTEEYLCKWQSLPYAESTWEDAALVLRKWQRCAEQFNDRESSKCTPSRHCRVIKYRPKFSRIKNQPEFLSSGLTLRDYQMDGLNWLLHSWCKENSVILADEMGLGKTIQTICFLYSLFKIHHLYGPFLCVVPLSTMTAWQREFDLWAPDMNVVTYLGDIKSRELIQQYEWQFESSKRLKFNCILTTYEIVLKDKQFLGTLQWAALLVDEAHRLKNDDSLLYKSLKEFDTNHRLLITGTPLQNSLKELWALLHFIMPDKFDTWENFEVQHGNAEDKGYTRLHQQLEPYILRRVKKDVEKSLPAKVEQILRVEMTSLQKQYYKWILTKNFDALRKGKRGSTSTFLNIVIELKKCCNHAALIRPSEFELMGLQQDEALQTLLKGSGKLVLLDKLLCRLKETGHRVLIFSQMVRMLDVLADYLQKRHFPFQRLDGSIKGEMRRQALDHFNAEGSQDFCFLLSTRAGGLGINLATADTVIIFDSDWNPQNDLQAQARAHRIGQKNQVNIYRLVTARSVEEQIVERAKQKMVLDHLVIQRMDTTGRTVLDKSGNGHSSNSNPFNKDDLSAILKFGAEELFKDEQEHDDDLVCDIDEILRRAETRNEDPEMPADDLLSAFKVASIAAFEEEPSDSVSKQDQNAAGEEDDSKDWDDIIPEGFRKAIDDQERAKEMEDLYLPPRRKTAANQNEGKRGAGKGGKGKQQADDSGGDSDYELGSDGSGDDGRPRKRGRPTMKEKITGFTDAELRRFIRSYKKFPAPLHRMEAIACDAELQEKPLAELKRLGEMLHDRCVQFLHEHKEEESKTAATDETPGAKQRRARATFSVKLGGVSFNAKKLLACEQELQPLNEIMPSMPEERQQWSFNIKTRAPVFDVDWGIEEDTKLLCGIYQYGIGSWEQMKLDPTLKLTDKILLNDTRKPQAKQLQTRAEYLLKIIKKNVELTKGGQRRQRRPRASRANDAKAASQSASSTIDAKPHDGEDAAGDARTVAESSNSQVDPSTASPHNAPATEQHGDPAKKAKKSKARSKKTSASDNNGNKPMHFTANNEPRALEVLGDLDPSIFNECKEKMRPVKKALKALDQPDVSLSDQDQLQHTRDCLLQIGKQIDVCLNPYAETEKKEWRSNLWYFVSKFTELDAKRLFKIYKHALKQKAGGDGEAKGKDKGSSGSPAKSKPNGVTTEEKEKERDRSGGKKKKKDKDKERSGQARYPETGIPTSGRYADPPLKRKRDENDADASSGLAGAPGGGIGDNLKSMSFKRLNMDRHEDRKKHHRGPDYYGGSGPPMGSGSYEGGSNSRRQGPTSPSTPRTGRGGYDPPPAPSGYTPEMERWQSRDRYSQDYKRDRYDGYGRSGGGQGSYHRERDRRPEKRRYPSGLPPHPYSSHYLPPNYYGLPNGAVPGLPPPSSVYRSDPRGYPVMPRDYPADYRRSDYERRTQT
UniProt Q9V6Q2: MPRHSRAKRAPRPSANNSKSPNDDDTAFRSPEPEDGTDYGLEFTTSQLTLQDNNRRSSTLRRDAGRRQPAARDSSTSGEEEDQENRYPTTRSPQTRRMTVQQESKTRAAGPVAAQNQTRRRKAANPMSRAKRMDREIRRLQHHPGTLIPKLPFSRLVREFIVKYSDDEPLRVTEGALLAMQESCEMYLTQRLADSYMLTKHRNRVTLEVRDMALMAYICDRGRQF

Assays:
[1] = target: Drosophila CHD1 (Drosophila (endogenous in S2 cells)) (UniProt Q7KU24); assay: co-IP; S2 cell chromatin digested with micrococcal nuclease to release mainly mononucleosomes; supernatant in buffer C (15 mM Tris/HCl pH 7.6, 150 mM NaCl, 1 mM EDTA, 1 mM DTT) incubated overnight at 4°C with anti-GFP or anti-CHD1 antibodies on protein A sepharose; immunoblot with anti-CID and anti-CHD1
[2] = target: EGFP-tagged CenH3^CID (Drosophila) (UniProt Q9V6Q2); assay: as above

## EGFP-tagged CenH3^CID (from UniProt Q9V6Q2 1-225)
[1]
  binding: no binding

## Drosophila CHD1 (from UniProt Q7KU24 1-1883)
[2]
  binding: no binding
